Test results published in patent US8999937B2, “Glucocorticoid induced leucine zipper mimetics as therapeutic agents in multiple sclerosis” (Indiana University Research and Technology Corporation, priority 2011, dated 2015).
At least one structure is not confirmed: it was looked up by name or label, or the drawing left a doubt.

Columns and labels:
[1] = tested on: PPD stimulated human CD4+ T cells; assay: Cytokine secretion by PPD-stimulated human CD4+ T cells (ELISA); type: cell-based; details: 24 h, complex with chariot peptide
Procedure: Purified CD4+ T cells isolated from PBMC by magnetic cell separation (Miltenyi Biotech, Germany), were seeded with irradiated autologous PBMC (T cells depleted) as APC at 1:1.5 ratio in serum-free RPMI (with 5% penicillin/streptomycin), and stimulated with PPD (20 μm/ml) alone or in the presence of dexamethasone (100 μm/ml) or 20:1 M complex of chariot peptide with GILZ protein (0.7 μm/ml)/anti-human GILZ mAb (1 μm/ml)/anti-human p65 mAb (1 μm/ml)/control antibody (1 μm/ml). Supernatants collected at 24 hrs were assessed for cytokines including human IFN-γ, TNF-α, IL-12 p40 and IL-10 using BD OptEIA™ kits. Differences in the secretion of cytokines between the groups were determined by one way ANOVA followed by Tukey's post-hoc analysis (see FIG. 4).

C[C@@H]1C[C@H]2[C@@H]3CCC4=CC(=O)C=C[C@]4(C)[C@@]3(F)[C@@H](O)C[C@]2(C)[C@@]1(O)C(=O)CO [dexamethasone, reference compound]
IL-10 secretion [1]: significantly elevated | secretion of IFN-γ [1]: significantly reduced | secretion of IL-12 [1]: significantly reduced | absorbance in GILZ coated wells probed with nuclear fraction (nuclear p65) (p65; antigen (PPD) stimulated CD4+ T cells treated with dexamethasone vs untreated): significantly decreased | p65 in nuclear fractions (p65; cells treated with dexamethasone alone (unstimulated)): Reduced p65
